Reference: publication PMC6514684
Results are given in words; binding and its absence hold for the method and conditions named. In cells and extracts the contact can be indirect. Some binding calls cover weakened binding; strength is not graded here.

Sequences of proteins named here, by UniProt entry; tags and fusion partners are left off. A change or cut given only in a name is not applied to a line headed by its entry.
UniProt Q05655: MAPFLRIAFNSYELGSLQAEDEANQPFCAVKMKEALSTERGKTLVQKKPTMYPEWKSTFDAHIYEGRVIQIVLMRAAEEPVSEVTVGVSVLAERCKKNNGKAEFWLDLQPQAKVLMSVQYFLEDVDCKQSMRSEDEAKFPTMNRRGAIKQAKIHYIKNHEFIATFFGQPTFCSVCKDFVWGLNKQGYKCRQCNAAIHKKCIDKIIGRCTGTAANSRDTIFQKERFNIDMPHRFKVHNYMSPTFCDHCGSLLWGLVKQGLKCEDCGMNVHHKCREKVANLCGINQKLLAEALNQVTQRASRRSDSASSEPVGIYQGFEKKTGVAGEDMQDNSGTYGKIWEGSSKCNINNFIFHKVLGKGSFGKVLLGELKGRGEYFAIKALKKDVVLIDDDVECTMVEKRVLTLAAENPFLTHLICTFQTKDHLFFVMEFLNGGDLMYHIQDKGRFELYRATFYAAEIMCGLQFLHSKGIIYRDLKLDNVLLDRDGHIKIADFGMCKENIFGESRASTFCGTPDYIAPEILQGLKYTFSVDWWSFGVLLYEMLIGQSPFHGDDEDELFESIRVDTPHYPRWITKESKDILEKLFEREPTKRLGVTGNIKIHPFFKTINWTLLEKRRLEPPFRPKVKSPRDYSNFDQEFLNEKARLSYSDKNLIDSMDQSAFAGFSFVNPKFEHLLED
UniProt P40763: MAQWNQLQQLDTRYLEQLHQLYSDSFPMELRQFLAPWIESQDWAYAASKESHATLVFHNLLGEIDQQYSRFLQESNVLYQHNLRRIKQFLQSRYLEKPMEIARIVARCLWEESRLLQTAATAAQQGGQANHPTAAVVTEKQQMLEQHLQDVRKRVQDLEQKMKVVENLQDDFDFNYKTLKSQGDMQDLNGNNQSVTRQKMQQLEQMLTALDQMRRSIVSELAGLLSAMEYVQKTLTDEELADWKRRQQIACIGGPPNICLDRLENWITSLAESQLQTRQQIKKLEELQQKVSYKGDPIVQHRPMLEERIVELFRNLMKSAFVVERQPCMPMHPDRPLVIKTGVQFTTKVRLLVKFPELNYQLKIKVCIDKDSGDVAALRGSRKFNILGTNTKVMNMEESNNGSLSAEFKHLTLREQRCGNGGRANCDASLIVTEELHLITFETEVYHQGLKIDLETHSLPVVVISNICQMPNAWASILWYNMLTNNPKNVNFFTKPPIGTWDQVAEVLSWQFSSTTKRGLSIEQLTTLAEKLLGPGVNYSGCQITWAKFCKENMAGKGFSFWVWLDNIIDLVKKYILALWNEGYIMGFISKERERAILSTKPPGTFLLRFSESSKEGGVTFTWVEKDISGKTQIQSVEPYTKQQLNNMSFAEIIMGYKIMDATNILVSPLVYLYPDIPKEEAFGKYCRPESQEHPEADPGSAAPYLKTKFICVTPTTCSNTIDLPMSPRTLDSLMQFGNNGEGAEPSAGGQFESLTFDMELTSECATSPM

Biological target: protein kinase C delta (PKCδ) (human (endogenous in THP-1)) (UniProt Q05655)
Assay: co-IP; endogenous PKCδ immunoprecipitated from THP-1/EV and THP-1/IL-32θ cells treated with 10 nM PMA for 24 h; RIPA lysate, 1 mg lysate with 1 μg antibody, protein G-agarose; Western blot

binding: binds
Substance: signal transducer and activator of transcription 3 (STAT3) (from UniProt P40763 1-770)
